Key:
[1] = general procedure: Fmoc solid-phase peptide synthesis; Rink Amide MBHA resin (RM2); Fmoc-D-Lys(Boc)-Wang resin (PSMA-I&S); HATU/DIPEA (fragment condensation); conditions: late stage modification step, 220 nm
[2] = general procedure: Fmoc solid-phase peptide synthesis; Rink Amide MBHA; HATU/DIPEA (fragment condensation); conditions: whole synthesis, 220 nm

| Substance | final HPLC purity [1] [%] | final HPLC purity [2] [%] |
| --- | --- | --- |
| mas3-tyr-nal-lys(Sub-Lys-urea-Glu) | >99 |  |
| DOTA-APipAc-phe-Gln-Trp-Ala-Val-Gly-His-Sta-Leu-NH2 |  | >95 |

From PMC12298007 (Pharmaceuticals, 2025)
